Assay results taken from the supplement of paper PMC10849652.
The other results are listed elsewhere or left out.

Amino acid sequences for entries named in this document (tags omitted). A change or cut given only in a name is not applied to a line headed by its entry.
UniProt Q8N488: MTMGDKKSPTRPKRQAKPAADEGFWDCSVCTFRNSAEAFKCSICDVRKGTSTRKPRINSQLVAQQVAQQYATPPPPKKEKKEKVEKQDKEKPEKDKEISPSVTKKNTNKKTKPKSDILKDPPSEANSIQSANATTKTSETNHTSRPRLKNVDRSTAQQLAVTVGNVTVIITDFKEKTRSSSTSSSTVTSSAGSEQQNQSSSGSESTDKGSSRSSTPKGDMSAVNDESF
UniProt P26447: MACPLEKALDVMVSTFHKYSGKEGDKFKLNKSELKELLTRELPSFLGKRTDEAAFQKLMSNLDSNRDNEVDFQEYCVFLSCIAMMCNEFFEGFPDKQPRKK
UniProt Q9Y224: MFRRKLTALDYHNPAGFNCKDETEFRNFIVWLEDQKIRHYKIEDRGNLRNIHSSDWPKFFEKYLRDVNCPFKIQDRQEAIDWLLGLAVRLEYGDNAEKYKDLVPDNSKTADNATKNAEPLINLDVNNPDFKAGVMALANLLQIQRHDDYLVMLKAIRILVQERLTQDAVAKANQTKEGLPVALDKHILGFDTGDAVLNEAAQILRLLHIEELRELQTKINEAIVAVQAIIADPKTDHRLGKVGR
UniProt P21817: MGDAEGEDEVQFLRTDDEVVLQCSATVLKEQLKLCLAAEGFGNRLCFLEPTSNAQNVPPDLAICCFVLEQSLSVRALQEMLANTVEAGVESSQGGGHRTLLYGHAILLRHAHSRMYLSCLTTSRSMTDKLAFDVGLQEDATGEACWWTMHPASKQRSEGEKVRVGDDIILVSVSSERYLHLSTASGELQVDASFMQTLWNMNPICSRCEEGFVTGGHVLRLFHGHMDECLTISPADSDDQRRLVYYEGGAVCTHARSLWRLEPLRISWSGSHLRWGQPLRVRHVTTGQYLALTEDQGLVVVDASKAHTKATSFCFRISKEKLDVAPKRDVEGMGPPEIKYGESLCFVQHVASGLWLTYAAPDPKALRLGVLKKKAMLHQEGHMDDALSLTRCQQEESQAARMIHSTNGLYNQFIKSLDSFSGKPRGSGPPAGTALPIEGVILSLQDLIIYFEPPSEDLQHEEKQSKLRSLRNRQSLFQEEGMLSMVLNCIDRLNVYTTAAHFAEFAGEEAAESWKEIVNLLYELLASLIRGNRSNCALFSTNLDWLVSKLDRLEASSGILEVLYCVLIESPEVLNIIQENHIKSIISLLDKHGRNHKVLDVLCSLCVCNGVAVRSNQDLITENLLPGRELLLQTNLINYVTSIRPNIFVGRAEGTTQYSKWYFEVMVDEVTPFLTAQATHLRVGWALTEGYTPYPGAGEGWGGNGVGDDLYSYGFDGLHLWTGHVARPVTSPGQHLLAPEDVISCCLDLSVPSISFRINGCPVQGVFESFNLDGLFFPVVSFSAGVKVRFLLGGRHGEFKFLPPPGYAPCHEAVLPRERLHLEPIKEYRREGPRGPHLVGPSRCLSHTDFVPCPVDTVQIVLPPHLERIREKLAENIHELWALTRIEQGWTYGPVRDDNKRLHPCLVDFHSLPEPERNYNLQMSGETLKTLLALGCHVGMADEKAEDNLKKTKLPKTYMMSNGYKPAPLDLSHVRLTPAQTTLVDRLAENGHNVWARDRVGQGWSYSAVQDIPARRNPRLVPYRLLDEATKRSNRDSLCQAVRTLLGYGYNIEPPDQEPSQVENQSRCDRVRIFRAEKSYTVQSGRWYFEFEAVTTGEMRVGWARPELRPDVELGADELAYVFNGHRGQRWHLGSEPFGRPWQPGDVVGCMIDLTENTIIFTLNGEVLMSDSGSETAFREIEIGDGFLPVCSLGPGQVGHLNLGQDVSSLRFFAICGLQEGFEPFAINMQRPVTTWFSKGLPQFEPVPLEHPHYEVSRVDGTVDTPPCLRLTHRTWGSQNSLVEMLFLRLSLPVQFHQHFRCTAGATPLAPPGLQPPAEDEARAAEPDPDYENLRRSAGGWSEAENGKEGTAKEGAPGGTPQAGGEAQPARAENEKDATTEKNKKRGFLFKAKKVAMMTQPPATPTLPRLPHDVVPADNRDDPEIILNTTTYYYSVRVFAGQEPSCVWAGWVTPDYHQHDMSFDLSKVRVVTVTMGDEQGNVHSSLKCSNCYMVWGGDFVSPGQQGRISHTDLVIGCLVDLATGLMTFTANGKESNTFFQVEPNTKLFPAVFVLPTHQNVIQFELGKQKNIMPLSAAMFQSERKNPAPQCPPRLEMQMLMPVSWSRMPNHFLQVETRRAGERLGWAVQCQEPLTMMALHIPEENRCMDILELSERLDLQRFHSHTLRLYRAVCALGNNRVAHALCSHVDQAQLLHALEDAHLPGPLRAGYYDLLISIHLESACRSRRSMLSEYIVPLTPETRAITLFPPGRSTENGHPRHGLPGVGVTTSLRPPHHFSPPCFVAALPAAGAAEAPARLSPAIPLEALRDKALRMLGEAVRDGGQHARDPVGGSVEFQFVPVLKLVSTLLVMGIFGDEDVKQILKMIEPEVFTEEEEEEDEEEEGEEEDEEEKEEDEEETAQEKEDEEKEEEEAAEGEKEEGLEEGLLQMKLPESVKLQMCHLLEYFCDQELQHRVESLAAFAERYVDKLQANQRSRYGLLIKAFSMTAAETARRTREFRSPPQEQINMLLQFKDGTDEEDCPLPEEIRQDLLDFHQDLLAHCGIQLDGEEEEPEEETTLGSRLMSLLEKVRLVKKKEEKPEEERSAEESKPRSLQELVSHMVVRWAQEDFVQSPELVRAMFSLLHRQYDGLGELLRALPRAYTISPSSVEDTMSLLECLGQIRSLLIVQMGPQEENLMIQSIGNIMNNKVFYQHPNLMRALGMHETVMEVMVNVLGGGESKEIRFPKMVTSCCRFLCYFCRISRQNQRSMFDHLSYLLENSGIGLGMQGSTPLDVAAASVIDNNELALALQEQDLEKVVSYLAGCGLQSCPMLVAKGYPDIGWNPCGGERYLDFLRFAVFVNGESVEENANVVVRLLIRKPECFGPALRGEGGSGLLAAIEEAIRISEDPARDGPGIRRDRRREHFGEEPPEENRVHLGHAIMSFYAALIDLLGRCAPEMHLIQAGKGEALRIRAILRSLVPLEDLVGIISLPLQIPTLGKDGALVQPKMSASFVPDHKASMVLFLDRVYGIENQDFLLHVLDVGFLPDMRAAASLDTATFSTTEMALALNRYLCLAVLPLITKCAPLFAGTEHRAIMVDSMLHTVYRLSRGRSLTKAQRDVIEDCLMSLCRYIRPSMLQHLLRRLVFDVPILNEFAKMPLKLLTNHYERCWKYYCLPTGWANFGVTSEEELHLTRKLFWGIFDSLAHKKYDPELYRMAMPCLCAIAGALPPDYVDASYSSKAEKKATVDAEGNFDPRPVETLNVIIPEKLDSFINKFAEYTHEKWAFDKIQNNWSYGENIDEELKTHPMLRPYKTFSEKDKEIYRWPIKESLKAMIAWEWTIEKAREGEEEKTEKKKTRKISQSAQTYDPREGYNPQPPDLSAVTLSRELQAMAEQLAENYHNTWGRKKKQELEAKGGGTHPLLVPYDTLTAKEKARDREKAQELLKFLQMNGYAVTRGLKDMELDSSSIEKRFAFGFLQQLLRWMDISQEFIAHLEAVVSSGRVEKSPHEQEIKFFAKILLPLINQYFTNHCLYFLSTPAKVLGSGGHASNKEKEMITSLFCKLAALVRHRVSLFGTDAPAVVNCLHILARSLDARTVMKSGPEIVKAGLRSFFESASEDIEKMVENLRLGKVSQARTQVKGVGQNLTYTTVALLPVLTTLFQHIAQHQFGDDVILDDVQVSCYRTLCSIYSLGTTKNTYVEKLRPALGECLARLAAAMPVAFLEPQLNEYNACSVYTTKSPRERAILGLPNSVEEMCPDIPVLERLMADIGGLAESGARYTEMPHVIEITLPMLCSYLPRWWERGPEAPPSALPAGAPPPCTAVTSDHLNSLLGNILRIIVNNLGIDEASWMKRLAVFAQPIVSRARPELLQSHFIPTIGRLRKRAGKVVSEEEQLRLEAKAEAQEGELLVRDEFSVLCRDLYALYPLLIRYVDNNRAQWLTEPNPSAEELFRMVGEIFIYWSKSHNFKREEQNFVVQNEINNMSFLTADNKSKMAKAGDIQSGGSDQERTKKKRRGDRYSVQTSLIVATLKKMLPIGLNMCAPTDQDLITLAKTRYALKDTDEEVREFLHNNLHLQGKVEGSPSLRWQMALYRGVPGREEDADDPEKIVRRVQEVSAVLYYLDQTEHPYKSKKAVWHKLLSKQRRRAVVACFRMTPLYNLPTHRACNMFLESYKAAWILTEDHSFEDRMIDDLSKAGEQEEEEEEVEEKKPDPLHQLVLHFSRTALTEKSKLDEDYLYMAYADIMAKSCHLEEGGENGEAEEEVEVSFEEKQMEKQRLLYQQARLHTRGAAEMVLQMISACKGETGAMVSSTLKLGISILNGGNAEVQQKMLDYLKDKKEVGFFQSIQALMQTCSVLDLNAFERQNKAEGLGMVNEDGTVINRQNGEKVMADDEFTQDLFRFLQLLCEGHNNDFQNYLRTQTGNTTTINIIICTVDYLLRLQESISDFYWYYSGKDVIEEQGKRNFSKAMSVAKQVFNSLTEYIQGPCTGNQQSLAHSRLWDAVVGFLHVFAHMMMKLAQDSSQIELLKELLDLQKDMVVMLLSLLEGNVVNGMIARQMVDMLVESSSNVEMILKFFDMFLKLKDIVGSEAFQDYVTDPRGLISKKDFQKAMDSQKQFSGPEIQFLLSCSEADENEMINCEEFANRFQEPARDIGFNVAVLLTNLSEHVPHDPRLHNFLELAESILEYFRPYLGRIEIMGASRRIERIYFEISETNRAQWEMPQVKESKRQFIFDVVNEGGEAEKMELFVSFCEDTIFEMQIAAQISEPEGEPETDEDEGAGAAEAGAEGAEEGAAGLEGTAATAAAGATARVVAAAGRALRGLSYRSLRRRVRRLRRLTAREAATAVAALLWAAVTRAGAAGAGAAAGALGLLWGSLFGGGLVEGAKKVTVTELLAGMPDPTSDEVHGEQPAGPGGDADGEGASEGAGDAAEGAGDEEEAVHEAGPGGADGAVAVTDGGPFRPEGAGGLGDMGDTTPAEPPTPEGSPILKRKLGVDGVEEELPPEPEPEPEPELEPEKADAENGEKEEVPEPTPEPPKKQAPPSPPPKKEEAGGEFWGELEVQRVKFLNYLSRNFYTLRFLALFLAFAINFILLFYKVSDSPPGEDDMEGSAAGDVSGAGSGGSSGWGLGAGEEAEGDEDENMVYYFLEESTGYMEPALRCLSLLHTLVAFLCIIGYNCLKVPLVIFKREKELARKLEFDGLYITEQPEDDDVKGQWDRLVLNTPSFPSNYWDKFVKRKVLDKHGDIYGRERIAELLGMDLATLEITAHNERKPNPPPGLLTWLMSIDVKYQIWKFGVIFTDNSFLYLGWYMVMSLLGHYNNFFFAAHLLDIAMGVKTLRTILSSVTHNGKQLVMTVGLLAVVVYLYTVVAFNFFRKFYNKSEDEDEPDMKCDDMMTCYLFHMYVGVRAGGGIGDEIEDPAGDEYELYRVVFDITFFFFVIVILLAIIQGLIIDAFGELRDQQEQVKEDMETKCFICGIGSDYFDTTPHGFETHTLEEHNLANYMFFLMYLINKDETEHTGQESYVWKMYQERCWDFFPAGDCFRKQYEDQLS
UniProt P60903, whole entry, looked up: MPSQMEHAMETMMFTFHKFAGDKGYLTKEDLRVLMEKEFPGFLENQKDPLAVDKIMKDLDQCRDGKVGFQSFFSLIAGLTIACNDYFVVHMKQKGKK
UniProt Q96CM3: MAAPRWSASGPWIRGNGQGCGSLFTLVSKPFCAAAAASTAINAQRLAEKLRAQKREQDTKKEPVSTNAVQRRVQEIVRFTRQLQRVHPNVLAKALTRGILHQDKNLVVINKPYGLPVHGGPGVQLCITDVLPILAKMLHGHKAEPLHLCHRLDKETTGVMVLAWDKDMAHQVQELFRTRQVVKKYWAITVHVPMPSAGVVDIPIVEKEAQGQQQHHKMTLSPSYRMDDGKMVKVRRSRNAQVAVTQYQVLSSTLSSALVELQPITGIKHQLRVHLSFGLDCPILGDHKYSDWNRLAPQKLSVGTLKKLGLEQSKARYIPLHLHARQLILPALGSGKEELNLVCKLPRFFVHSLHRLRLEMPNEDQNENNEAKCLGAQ
UniProt Q7L3V2: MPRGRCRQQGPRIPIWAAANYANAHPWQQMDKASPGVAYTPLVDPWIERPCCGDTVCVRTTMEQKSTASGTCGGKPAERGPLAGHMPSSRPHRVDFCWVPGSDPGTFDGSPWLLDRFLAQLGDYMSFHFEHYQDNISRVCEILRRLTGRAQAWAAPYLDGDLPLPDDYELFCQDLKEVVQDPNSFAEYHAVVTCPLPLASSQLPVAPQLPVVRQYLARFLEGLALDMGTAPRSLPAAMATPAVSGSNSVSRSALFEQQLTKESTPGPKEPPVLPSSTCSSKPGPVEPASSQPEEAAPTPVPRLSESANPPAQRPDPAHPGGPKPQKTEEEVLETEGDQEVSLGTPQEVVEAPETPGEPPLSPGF
UniProt Q86WX3: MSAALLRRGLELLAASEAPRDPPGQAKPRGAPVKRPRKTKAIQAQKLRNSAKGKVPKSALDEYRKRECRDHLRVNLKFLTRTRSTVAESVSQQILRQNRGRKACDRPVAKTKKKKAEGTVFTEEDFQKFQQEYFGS

How the values were obtained:
Experiment in all cases: log2 fold change, soluble protein after heating vs DMSO (PISA); higher = thermal stabilisation; K562 lysate, 10 uM; active = over 0.2 and 3.5 SD of the protein, either way, in both replicates (recomputed)
lapatinib = compound: CS(=O)(=O)CCNCc1ccc(-c2ccc3ncnc(Nc4ccc(OCc5cccc(F)c5)c(Cl)c4)c3c2)o1 [lapatinib]
Summary of the method: (§1)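 Soluble protein was defined as the supernatant remaining after 21,000xg for 90 min, following pooling of heated aliquots and adjustment to 0.5% NP-40 at 4°C. Before that, crude K562 extract at 1 mg/mL protein in PBS pH 7.4 with 1 mM MgCl2 was treated with 10 μM compound for 30 min and heated for 3 min across 48°C-58°C. Quantification used TMTpro 16plex LC-MS/MS with channel sums equalised, and values are log-two fold changes in thermal stability relative to solvent controls from duplicates.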

pictilisib = compound: CS(=O)(=O)N1CCN(Cc2cc3nc(-c4cccc5[nH]ncc45)nc(N4CCOCC4)c3s2)CC1 [pictilisib]
Summary of the method: as §1

crizotinib = compound: C[C@@H](Oc1cc(-c2cnn(C3CCNCC3)c2)cnc1N)c1c(Cl)ccc(F)c1Cl [crizotinib]
Summary of the method: as §1

[1] = compound: C[C@H](C1=CC=C(C=C1)C(=O)NC2=C3C=CNC3=NC=C2)N
Summary of the method: as §1

duvelisib = compound: C[C@H](Nc1ncnc2nc[nH]c12)c1cc2cccc(Cl)c2c(=O)n1-c1ccccc1 [duvelisib]
Summary of the method: as §1

gandotinib = compound: Cc1cc(Nc2cc(CN3CCOCC3)c3nc(C)c(Cc4ccc(Cl)cc4F)n3n2)n[nH]1 [gandotinib]
Summary of the method: as §1

tozasertib = compound: Cc1cc(Nc2cc(N3CCN(C)CC3)nc(Sc3ccc(NC(=O)C4CC4)cc3)n2)n[nH]1 [tozasertib]
Summary of the method: as §1

doramapimod = compound: Cc1ccc(-n2nc(C(C)(C)C)cc2NC(=O)Nc2ccc(OCCN3CCOCC3)c3ccccc23)cc1 [doramapimod]
Summary of the method: as §1

bafetinib = compound: Cc1ccc(NC(=O)c2ccc(CN3CC[C@H](N(C)C)C3)c(C(F)(F)F)c2)cc1Nc1nccc(-c2cncnc2)n1 [bafetinib]
Summary of the method: as §1

[2] = compound: Cc1cccc(CC(=O)N2CCc3c2ccc(-c2cn(C)c4ncnc(N)c24)c3F)n1
Summary of the method: as §1

nilotinib = compound: Cc1cn(-c2cc(NC(=O)c3ccc(C)c(Nc4nccc(-c5cccnc5)n4)c3)cc(C(F)(F)F)c2)cn1 [nilotinib]
Summary of the method: as §1

[3] = compound: Cc1nc(Nc2n[nH]c3c2CN(C(=O)N[C@H](CN(C)C)c2ccccc2)C3(C)C)c2sccc2n1
Summary of the method: as §1

dasatinib = compound: Cc1nc(Nc2ncc(C(=O)Nc3c(C)cccc3Cl)s2)cc(N2CCN(CCO)CC2)n1 [dasatinib]
Summary of the method: as §1

[4] = compound: Cc1ncc(-c2ccnc(Nc3ccc(S(C)(=O)=O)cc3)n2)n1C(C)C
Summary of the method: as §1

[5] = compound: Cn1cc(-c2ccc3c(c2)CCN3C(=O)Cc2cccc(C(F)(F)F)c2)c2c(N)ncnc21
Summary of the method: as §1

quisinostat = compound: Cn1cc(CNCC2CCN(c3ncc(C(=O)NO)cn3)CC2)c2ccccc21 [quisinostat]
Summary of the method: as §1

tipifarnib = compound: Cn1cncc1[C@@](N)(c1ccc(Cl)cc1)c1ccc2c(c1)c(-c1cccc(Cl)c1)cc(=O)n2C [tipifarnib]
Summary of the method: as §1

[6] = compound: NC(=O)Nc1cc(-c2cccc(F)c2)sc1C(=O)N[C@H]1CCCNC1
Summary of the method: as §1

[7] = compound: NC(=O)c1cnc(N[C@@H]2CCCC[C@@H]2N)nc1Nc1cccc(-n2nccn2)c1
Summary of the method: as §1

[8] = compound: NC1(c2ccc(-c3nc4ccn5c(=O)[nH]nc5c4cc3-c3ccccc3)cc2)CCC1
Summary of the method: as §1

Measured: log2 fold change

RYBP (UniProt Q8N488)
inactive: lapatinib 0.024 | pictilisib 0.05 | crizotinib -0.013 | [1] -0.027 | duvelisib 0.009 | gandotinib 0.012 | tozasertib -0.016 | doramapimod 0.069 | bafetinib -0.006 | [2] 0.096 | nilotinib -0.006 | [3] 0.12 | dasatinib 0.098 | [4] -0.015 | [5] 0.006 | quisinostat -0.095 | tipifarnib -0.004 | [6] -0.027 | [7] 0.011 | [8] -0.113

S100A4 (UniProt P26447)
inactive: lapatinib -0.037 | crizotinib 0.055 | [1] 0.157 | duvelisib -0.131 | gandotinib -0.005 | tozasertib -0.004 | doramapimod 0.464 | [2] -0.043 | nilotinib 0.071 | [3] 0.081 | dasatinib 0.219 | [4] -0.078 | [5] -0.167 | quisinostat -0.095 | tipifarnib -0.3 | [6] 0.004 | [7] -0.099 | [8] -0.012

RRP15 (UniProt Q9Y3B9)
inactive: lapatinib -0.01 | pictilisib 0.014 | crizotinib 0.01 | [1] 0.012 | duvelisib -0.03 | gandotinib 0.121 | tozasertib -0.059 | doramapimod 0 | bafetinib -0.032 | [2] -0.006 | nilotinib 0.025 | [3] -0.024 | dasatinib 0.006 | [4] -0.015 | [5] 0.023 | quisinostat -0.054 | tipifarnib -0.004 | [6] -0.018 | [7] -0.034 | [8] -0.022

RTRAF (UniProt Q9Y224)
inactive: lapatinib -0.006 | pictilisib -0.095 | crizotinib 0.022 | [1] -0.037 | duvelisib 0.026 | gandotinib -0.017 | tozasertib 0.047 | doramapimod 0.017 | bafetinib 0.152 | [2] 0.017 | nilotinib -0.019 | [3] 0.061 | dasatinib -0.003 | [4] -0.011 | [5] 0.009 | quisinostat 0.019 | tipifarnib -0.004 | [6] -0.052 | [7] 0 | [8] 0.021

RPS7, A0A2R8Y623
inactive: lapatinib 0.272 | pictilisib 0.373 | duvelisib -0.209 | tozasertib 0.235 | bafetinib 0.409 | dasatinib 0.077 | [5] -0.231 | [7] 0.33 | [8] 0.061

S100A16 (UniProt Q96FQ6)
inactive: lapatinib 0.184 | pictilisib 0.32 | crizotinib -0.038 | [1] 0.433 | gandotinib 0.763 | doramapimod -0.138 | bafetinib 0.069 | [2] -0.162 | nilotinib 0.148 | [3] 0.05 | [4] -0.154 | quisinostat 0 | tipifarnib -0.514 | [6] 0.136 | [7] 0.219

RSF1 (UniProt Q96T23)
inactive: lapatinib 0.016 | pictilisib -0.029 | crizotinib -0.014 | [1] 0.067 | duvelisib -0.021 | gandotinib -0.062 | tozasertib 0.013 | doramapimod 0.018 | bafetinib 0.023 | [2] -0.024 | dasatinib -0.128 | [5] 0.07 | quisinostat 0 | [6] -0.001 | [7] -0.028 | [8] -0.169

RPL7A (UniProt P62424)
inactive: lapatinib -0.016 | pictilisib 0.007 | crizotinib 0.037 | [1] 0.135 | duvelisib 0.037 | gandotinib -0.047 | tozasertib -0.03 | doramapimod -0.069 | bafetinib 0.051 | [2] -0.039 | nilotinib 0.023 | [3] 0.006 | dasatinib 0.018 | [4] 0.014 | [5] -0.031 | quisinostat 0.102 | tipifarnib 0.031 | [6] -0.043 | [7] -0.016 | [8] 0.011

Taken from the entries so far (2 entries):
S100A16 (UniProt Q96FQ6)
inactive: lapatinib 0.184 | pictilisib 0.32 | crizotinib -0.038 | [1] 0.433 | gandotinib 0.763 | doramapimod -0.138 | bafetinib 0.069 | [2] -0.162 | nilotinib 0.148 | [3] 0.05 | [4] -0.154 | quisinostat 0 | tipifarnib -0.514 | [6] 0.136 | [7] 0.219

RSF1 (UniProt Q96T23)
inactive: lapatinib 0.016 | pictilisib -0.029 | crizotinib -0.014 | [1] 0.067 | duvelisib -0.021 | gandotinib -0.062 | tozasertib 0.013 | doramapimod 0.018 | bafetinib 0.023 | [2] -0.024 | dasatinib -0.128 | [5] 0.07 | quisinostat 0 | [6] -0.001 | [7] -0.028 | [8] -0.169

More results follow.

RYR1 (UniProt P21817)
active: quisinostat -0.392
inactive: lapatinib 0.028 | pictilisib -0.048 | crizotinib -0.229 | [1] -0.017 | duvelisib -0.032 | gandotinib -0.027 | tozasertib 0.04 | doramapimod 0.112 | bafetinib -0.13 | [2] 0.016 | dasatinib -0.032 | [5] -0.061 | [6] 0.046 | [7] 0.029 | [8] 0.003

RPP14 (UniProt O95059)
inactive: lapatinib 0.003 | pictilisib -0.022 | crizotinib -0.044 | [1] 0.027 | gandotinib 0.02 | tozasertib 0.012 | doramapimod 0.093 | bafetinib -0.035 | [2] -0.05 | nilotinib 0.061 | [3] 0.046 | [4] 0.045 | quisinostat -0.113 | tipifarnib -0.104 | [6] 0.087 | [7] 0.01 | [8] -0.102

S100A10 (UniProt P60903)
inactive: pictilisib 0.312 | crizotinib 0.068 | duvelisib -0.067 | doramapimod 0.047 | bafetinib -0.102 | nilotinib 0.051 | [3] 0.038 | dasatinib 0.896 | [4] -0.019 | [5] -0.178 | quisinostat -0.312 | tipifarnib -0.027 | [6] 0.159 | [8] 0.175

RPUSD3 (UniProt Q6P087)
inactive: crizotinib -0.142 | [1] 0.009 | duvelisib 0.006 | gandotinib -0.197 | tozasertib 0.041 | doramapimod -0.055 | [2] -0.022 | nilotinib 0.009 | [3] 0.025 | dasatinib 0.041 | [4] -0.033 | [5] 0.008 | quisinostat -0.123 | tipifarnib -0.028 | [6] -0.037 | [8] 0.077

RSC1A1 (UniProt Q92681)
inactive: pictilisib 0.007 | crizotinib 0.119 | duvelisib 0.234 | doramapimod -0.208 | bafetinib -0.11 | nilotinib 0.077 | [3] 0.096 | dasatinib -0.257 | [4] 0.022 | [5] 0 | quisinostat -0.202 | tipifarnib 0.026 | [6] 0.046

RPUSD4 (UniProt Q96CM3)
inactive: pictilisib -0.091 | crizotinib -0.007 | [1] -0.061 | duvelisib -0.073 | gandotinib 0.023 | doramapimod 0.02 | bafetinib -0.096 | [2] 0.083 | nilotinib -0.026 | [3] -0.02 | dasatinib 0.046 | [4] 0.001 | [5] 0 | quisinostat -0.006 | tipifarnib -0.045 | [6] 0.058 | [8] -0.021

RTN4, A0A0U1RQR6
inactive: [1] -0.236 | gandotinib 0.379 | [2] 0.519

RTL10 (UniProt Q7L3V2)
inactive: pictilisib -0.03 | crizotinib -0.028 | [1] 0 | duvelisib -0.004 | gandotinib -0.107 | tozasertib -0.015 | doramapimod -0.023 | bafetinib 0.042 | [2] 0.074 | nilotinib -0.003 | [3] -0.216 | dasatinib -0.027 | [4] 0.038 | [5] -0.022 | quisinostat -0.056 | tipifarnib 0.026 | [6] 0.065 | [8] 0.024

RPS19BP1 (UniProt Q86WX3)
inactive: lapatinib 0.154 | crizotinib -0.172 | tozasertib 0.038 | doramapimod 0.182 | quisinostat -0.147 | [6] -0.042 | [7] 0.038
